# According to the supplement of paper PMC6411743:
# Amino acid sequences for entries named in this document (tags omitted). A change or cut given only in a name is not applied to a line headed by its entry.
# UniProt Q96N16: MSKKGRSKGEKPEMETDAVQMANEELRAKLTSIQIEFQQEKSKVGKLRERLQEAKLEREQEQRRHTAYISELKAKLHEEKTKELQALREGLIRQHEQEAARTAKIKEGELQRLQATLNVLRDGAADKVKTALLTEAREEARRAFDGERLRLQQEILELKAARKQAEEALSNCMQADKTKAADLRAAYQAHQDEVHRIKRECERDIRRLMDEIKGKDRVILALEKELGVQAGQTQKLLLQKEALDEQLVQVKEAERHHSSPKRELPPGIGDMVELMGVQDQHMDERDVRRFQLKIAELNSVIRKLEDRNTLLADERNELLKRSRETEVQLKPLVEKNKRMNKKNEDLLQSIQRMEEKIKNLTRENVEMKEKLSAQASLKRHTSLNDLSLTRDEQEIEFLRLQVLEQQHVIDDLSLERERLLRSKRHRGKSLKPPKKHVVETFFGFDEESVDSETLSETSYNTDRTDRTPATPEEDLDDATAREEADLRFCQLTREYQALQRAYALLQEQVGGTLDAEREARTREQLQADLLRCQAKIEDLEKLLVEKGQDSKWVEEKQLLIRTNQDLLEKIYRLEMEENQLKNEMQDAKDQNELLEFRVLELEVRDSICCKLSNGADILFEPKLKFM
# UniProt Q96MW5: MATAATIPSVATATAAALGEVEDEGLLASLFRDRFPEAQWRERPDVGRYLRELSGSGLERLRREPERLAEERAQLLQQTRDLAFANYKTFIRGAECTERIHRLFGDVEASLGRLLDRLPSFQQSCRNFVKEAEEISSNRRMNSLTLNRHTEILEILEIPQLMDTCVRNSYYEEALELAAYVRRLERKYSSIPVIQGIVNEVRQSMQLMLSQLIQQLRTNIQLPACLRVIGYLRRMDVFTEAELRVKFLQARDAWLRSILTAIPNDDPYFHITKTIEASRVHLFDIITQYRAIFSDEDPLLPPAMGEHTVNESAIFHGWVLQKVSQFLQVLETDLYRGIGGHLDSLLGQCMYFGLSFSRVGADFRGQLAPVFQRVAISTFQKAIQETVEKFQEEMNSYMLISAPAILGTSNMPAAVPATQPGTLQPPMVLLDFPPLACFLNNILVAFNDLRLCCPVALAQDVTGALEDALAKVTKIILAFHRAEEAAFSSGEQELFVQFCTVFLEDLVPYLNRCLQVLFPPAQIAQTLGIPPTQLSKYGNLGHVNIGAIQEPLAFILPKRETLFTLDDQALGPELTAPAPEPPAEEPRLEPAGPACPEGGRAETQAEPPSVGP
# UniProt Q96BN8, whole entry: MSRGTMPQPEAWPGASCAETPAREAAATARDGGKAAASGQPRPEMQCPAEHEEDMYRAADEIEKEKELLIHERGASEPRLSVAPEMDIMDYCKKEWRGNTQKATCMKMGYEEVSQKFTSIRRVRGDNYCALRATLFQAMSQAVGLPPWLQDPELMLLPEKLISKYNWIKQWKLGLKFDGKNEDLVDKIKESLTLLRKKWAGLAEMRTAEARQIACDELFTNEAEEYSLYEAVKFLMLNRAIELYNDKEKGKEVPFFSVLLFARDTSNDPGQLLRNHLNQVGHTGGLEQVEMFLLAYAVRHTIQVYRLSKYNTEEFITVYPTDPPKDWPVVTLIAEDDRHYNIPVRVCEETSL
# UniProt Q96EK9: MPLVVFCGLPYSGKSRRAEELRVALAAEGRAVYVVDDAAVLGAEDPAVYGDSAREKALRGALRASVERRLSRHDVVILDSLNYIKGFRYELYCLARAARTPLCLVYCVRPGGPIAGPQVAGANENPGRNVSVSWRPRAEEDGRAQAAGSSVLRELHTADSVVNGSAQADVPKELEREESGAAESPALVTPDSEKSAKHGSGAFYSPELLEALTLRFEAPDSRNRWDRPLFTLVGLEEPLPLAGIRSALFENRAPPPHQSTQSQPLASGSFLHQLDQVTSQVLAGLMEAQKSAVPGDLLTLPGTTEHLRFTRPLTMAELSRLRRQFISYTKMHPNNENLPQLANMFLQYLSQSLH
# UniProt Q96MG8: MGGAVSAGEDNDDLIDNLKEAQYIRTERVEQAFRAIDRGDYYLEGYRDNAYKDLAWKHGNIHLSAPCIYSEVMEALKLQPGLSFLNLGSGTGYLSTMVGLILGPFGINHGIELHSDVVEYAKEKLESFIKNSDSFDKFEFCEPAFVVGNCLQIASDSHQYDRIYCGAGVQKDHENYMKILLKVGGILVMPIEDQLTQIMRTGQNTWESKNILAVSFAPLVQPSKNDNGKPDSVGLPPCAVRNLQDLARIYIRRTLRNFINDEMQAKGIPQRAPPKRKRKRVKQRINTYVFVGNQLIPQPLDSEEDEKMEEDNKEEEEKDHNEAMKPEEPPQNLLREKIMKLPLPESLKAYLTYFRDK
# UniProt Q96F44: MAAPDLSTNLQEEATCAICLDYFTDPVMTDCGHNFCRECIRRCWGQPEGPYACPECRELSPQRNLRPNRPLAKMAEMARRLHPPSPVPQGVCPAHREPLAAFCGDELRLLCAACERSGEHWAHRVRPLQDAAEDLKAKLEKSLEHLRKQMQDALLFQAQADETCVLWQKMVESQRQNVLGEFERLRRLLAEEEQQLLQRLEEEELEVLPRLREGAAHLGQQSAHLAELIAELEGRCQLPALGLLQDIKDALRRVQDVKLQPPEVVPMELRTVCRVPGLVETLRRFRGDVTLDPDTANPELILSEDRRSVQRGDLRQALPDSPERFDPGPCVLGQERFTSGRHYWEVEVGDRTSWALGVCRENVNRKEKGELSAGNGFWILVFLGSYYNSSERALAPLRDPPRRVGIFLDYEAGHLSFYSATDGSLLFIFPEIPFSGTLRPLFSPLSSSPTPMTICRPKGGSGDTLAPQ
# UniProt Q96EX2: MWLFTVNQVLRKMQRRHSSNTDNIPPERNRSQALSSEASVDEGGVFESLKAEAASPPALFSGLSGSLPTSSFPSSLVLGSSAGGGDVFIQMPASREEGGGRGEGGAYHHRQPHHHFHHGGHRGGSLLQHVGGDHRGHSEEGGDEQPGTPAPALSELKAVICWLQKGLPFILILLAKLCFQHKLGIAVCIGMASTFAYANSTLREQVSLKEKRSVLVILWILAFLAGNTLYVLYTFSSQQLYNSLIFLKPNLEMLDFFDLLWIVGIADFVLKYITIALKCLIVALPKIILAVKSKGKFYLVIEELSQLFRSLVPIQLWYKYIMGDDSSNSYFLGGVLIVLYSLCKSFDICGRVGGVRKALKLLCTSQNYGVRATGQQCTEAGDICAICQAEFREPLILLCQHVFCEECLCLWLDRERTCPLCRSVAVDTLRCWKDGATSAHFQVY
# UniProt Q969M7: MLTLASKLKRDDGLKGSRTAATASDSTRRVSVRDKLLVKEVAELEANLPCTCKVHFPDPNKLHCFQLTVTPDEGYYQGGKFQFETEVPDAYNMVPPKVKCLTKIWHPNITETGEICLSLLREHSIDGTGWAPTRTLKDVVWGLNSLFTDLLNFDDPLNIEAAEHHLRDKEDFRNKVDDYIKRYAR
# UniProt Q93015: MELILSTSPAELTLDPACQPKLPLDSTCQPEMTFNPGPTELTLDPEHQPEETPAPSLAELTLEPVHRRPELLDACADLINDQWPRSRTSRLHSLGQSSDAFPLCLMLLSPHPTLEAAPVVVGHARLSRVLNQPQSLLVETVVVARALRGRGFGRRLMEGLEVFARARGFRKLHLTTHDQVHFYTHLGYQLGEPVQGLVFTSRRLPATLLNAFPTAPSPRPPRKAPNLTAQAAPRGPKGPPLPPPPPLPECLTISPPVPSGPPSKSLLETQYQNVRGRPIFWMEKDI
# UniProt Q96QC0: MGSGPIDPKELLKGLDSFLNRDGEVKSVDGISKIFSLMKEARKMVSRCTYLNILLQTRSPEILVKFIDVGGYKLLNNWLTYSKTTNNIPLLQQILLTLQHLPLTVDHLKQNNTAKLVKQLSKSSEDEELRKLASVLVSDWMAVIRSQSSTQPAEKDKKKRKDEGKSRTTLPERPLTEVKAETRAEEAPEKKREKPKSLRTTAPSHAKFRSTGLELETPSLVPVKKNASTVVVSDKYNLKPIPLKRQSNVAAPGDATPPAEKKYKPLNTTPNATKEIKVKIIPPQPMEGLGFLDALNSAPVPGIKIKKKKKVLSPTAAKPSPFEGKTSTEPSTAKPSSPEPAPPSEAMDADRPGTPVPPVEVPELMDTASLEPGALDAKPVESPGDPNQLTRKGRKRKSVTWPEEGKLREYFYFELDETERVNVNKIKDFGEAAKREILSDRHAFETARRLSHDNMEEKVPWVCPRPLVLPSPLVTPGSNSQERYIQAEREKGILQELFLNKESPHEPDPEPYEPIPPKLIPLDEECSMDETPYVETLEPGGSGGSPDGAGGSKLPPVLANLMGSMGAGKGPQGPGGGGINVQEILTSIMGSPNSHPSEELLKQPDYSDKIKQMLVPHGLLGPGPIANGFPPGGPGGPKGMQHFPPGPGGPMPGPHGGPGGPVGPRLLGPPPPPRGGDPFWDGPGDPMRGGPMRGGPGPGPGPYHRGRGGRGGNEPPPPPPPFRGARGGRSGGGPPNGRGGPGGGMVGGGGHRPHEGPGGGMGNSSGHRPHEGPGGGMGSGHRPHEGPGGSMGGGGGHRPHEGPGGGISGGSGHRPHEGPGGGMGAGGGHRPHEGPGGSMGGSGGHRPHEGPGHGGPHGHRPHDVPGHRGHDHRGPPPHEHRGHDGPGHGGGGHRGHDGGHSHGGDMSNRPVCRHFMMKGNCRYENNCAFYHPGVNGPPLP
# UniProt Q96CB9: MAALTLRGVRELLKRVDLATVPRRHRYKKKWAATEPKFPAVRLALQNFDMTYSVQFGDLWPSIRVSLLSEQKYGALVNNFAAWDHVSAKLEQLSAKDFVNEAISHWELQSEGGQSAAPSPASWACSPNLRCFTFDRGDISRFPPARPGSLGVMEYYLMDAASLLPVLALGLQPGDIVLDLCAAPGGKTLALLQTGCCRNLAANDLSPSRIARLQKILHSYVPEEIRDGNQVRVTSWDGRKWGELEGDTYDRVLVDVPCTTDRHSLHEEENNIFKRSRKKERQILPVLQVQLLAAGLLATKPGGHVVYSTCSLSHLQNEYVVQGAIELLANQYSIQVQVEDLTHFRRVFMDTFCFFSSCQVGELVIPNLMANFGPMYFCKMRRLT
# UniProt Q96HW7, whole entry: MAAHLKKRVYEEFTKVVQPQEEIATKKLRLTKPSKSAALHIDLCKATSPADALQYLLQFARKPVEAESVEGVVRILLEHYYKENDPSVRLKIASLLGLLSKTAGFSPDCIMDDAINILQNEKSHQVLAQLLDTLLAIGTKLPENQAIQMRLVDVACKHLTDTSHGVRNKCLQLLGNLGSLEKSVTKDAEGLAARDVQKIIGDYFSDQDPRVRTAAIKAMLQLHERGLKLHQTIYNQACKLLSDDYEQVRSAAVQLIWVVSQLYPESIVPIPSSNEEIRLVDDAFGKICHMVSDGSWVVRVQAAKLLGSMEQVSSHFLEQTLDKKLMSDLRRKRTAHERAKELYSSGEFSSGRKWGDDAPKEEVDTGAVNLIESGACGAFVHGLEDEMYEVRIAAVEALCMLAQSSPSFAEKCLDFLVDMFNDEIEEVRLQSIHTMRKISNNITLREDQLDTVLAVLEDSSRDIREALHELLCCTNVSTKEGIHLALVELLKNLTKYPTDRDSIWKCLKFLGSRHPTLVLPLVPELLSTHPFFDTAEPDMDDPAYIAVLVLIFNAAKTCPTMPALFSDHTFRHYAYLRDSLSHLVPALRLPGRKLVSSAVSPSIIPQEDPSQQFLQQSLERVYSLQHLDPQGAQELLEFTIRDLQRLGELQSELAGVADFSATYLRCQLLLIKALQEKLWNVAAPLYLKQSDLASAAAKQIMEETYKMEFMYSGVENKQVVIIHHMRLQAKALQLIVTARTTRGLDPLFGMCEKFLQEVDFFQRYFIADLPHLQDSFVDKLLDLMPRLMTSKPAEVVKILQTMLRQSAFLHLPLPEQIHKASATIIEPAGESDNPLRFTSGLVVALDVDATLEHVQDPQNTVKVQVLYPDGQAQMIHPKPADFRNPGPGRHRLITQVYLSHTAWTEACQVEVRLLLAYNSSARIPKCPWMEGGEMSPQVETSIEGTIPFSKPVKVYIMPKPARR
# UniProt Q96A49: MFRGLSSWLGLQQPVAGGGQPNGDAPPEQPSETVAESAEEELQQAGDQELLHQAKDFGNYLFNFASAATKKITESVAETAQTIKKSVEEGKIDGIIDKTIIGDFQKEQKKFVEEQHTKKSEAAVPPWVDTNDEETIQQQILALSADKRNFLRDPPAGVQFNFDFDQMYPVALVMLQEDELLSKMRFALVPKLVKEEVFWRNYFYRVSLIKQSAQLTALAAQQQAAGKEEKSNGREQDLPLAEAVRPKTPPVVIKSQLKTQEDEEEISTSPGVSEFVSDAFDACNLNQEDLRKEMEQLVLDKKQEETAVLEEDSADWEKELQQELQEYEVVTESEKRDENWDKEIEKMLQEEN
# ± gives the standard deviation of the averaged measurements. The list shows a part of the results, in another mix than the full data.
# Compound: Nc1ncnc2c1ncn2[C@@H]1O[C@H](COP(=O)(O)OP(=O)(O)NP(=O)(O)O)[C@@H](O)[C@H]1O [adenylyl imidodiphosphate]
# Assay: NP40-soluble protein abundance relative to vehicle (solubility fold change) (ratio); higher = more soluble protein in presence of AMP-PNP
# Procedure, shortened: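 Data come from three independent experiments in which Dounce-homogenised Jurkat crude lysate was treated at eight concentrations from 0.1 to 10 mM. Treatment ran 10 min at room temperature and then 3 min at 37 °C, after which 0.8% NP40 and benzonase were added for 60 min at 4 °C before ultracentrifugation. The supernatant underwent TMT labelling and LC-MS/MS, and vsn-normalised intensities were expressed as fold change against the detergent-processed vehicle in each replicate.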
Target,NP40-soluble protein abundance (concentration: 1mM),NP40-soluble protein abundance (concentration: 2mM),NP40-soluble protein abundance (concentration: 4mM),NP40-soluble protein abundance (concentration: 6mM),NP40-soluble protein abundance (concentration: 8mM),NP40-soluble protein abundance (concentration: 10mM)
ZNF830 (UniProt Q96NB3),1.05 ± 0.023,1.11 ± 0.015,1.06 ± 0.03,1.04 ± 0.031,1.04 ± 0.051,1.04 ± 0.049
CCDC43 (UniProt Q96MW1),0.974 ± 0.057,1.05 ± 0.064,0.972 ± 0.048,0.93 ± 0.027,0.904 ± 0.042,0.9 ± 0.11
GNPNAT1 (UniProt Q96EK6),1.06 ± 0.029,1 ± 0.051,1.04 ± 0.026,1.01 ± 0.035,1.03 ± 0.015,1.02 ± 0.045
UniProt Q96K49 and related entries,0.99 ± 0.013,1.01 ± 0.027,0.984 ± 0.026,0.9718 ± 0.005,0.9653 ± 0.0019,0.9716 ± 0.0066
TRMT61A (UniProt Q96FX7),1.01 ± 0.041,0.933 ± 0.069,1.03 ± 0.022,0.993 ± 0.047,1.03 ± 0.036,1.001 ± 0.0083
MSI2 (UniProt Q96DH6),1 ± 0.029,1.03 ± 0.033,1.03 ± 0.044,1.06 ± 0.046,1.05 ± 0.021,1.07 ± 0.044
UniProt Q96ED9-2|Q96ED9,0.983 ± 0.027,1.01 ± 0.038,0.977 ± 0.048,0.98 ± 0.042,0.963 ± 0.041,0.95 ± 0.063
LRRC59 (UniProt Q96AG4),1.11 ± 0.048,1.32 ± 0.3,1.13 ± 0.089,1.15 ± 0.028,1.12 ± 0.052,1.19 ± 0.13
UniProt Q96N16 and related entries,1.03 ± 0.027,1.1 ± 0.028,1.09 ± 0.054,1.12 ± 0.054,1.1 ± 0.024,1.11 ± 0.034
UniProt Q96B36 and related entries,0.992 ± 0.045,1.03 ± 0.079,0.986 ± 0.052,1.01 ± 0.028,0.953 ± 0.014,0.983 ± 0.041
DNAJA3 (UniProt Q96EY1),1.02 ± 0.039,1.02 ± 0.077,0.993 ± 0.023,0.949 ± 0.056,0.942 ± 0.034,1.01 ± 0.081
PRRC1 (UniProt Q96M27),1.03 ± 0.085,1.01 ± 0.085,1.01 ± 0.071,1.03 ± 0.046,1.05 ± 0.05,1 ± 0.093
UniProt Q96EX1,0.944 ± 0.021,1.05 ± 0.11,0.899 ± 0.017,0.976 ± 0.018,0.879 ± 0.011,0.948 ± 0.079
COG8 (UniProt Q96MW5),0.943 ± 0.019,0.937 ± 0.016,0.971 ± 0.023,0.977 ± 0.022,0.961 ± 0.029,0.951 ± 0.04
DCPS (UniProt Q96C86),0.973 ± 0.024,0.931 ± 0.047,0.949 ± 0.034,0.933 ± 0.0091,0.926 ± 0.035,0.911 ± 0.03
RCHY1 (UniProt Q96PM5),1.02 ± 0.027,1.02 ± 0.043,0.991 ± 0.052,0.951 ± 0.028,0.9727 ± 0.0089,0.914 ± 0.026
UniProt Q96Q45 and related entries,1.01 ± 0.022,1.02 ± 0.04,1.038 ± 0.01,0.984 ± 0.017,1.01 ± 0.043,0.9947 ± 0.0086
UniProt Q96B23-2,1.03 ± 0.058,1.06 ± 0.072,1.02 ± 0.024,1.01 ± 0.0076,0.977 ± 0.012,1.02 ± 0.021
UniProt Q96EK5,1.01 ± 0.033,0.965 ± 0.043,0.992 ± 0.039,0.999 ± 0.081,1.03 ± 0.066,0.97 ± 0.073
UniProt Q96BN8,1 ± 0.027,0.936 ± 0.028,0.981 ± 0.03,0.991 ± 0.042,0.996 ± 0.023,0.972 ± 0.021
UniProt Q96MG7,0.966 ± 0.035,1.01 ± 0.022,0.957 ± 0.049,0.934 ± 0.034,0.961 ± 0.024,0.912 ± 0.041
PPWD1 (UniProt Q96BP3),0.984 ± 0.013,0.933 ± 0.087,1 ± 0.06,1.01 ± 0.037,1.04 ± 0.042,1.02 ± 0.036
KTI12 (UniProt Q96EK9),0.998 ± 0.025,1.08 ± 0.08,1 ± 0.052,0.9826 ± 0.0053,0.987 ± 0.044,0.988 ± 0.015
PCMTD1 (UniProt Q96MG8),1.03 ± 0.034,1.01 ± 0.043,1.01 ± 0.021,1.01 ± 0.029,1 ± 0.043,0.992 ± 0.049
NTAN1 (UniProt Q96AB6),0.9918 ± 0.0098,1.004 ± 0.0048,1.03 ± 0.029,0.983 ± 0.033,0.985 ± 0.012,0.981 ± 0.015
MRPL24 (UniProt Q96A35),0.973 ± 0.11,0.964 ± 0.067,0.951 ± 0.14,0.898 ± 0.16,0.897 ± 0.16,0.917 ± 0.18
UniProt Q96DB5,0.983 ± 0.014,0.991 ± 0.011,0.985 ± 0.011,0.994 ± 0.025,0.994 ± 0.028,0.981 ± 0.025

# Random excerpt: 4 records from the list, in no set order.
Target,NP40-soluble protein abundance (concentration: 1mM),NP40-soluble protein abundance (concentration: 2mM),NP40-soluble protein abundance (concentration: 4mM),NP40-soluble protein abundance (concentration: 6mM),NP40-soluble protein abundance (concentration: 8mM),NP40-soluble protein abundance (concentration: 10mM)
KTI12 (UniProt Q96EK9),0.998 ± 0.025,1.08 ± 0.08,1 ± 0.052,0.9826 ± 0.0053,0.987 ± 0.044,0.988 ± 0.015
UniProt Q96Q45 and related entries,1.01 ± 0.022,1.02 ± 0.04,1.038 ± 0.01,0.984 ± 0.017,1.01 ± 0.043,0.9947 ± 0.0086
NTAN1 (UniProt Q96AB6),0.9918 ± 0.0098,1.004 ± 0.0048,1.03 ± 0.029,0.983 ± 0.033,0.985 ± 0.012,0.981 ± 0.015
UniProt Q96EX1,0.944 ± 0.021,1.05 ± 0.11,0.899 ± 0.017,0.976 ± 0.018,0.879 ± 0.011,0.948 ± 0.079

# Later entries

Target,NP40-soluble protein abundance (concentration: 1mM),NP40-soluble protein abundance (concentration: 2mM),NP40-soluble protein abundance (concentration: 4mM),NP40-soluble protein abundance (concentration: 6mM),NP40-soluble protein abundance (concentration: 8mM),NP40-soluble protein abundance (concentration: 10mM)
UniProt Q96BD8,0.979 ± 0.018,1.04 ± 0.016,0.981 ± 0.035,0.974 ± 0.028,0.988 ± 0.047,0.9505 ± 0.0082
UniProt Q93074-2,1.01 ± 0.032,1 ± 0.028,1.06 ± 0.019,0.971 ± 0.08,0.984 ± 0.042,0.999 ± 0.067
UniProt Q96L92 and related entries,0.969 ± 0.013,0.938 ± 0.068,0.969 ± 0.029,0.948 ± 0.013,0.957 ± 0.037,0.925 ± 0.054
TBRG4 (UniProt Q969Z0),0.984 ± 0.03,0.953 ± 0.033,0.955 ± 0.012,0.959 ± 0.028,0.941 ± 0.022,0.935 ± 0.054
UniProt Q96F44 and related entries,1.01 ± 0.023,1.02 ± 0.038,1.05 ± 0.02,0.992 ± 0.039,0.987 ± 0.044,1.01 ± 0.05
PNPLA2 (UniProt Q96AD5),0.9996 ± 0.0052,0.969 ± 0.013,0.991 ± 0.013,0.963 ± 0.043,1 ± 0.011,0.967 ± 0.013
UniProt Q96HE7,1.05 ± 0.013,1.06 ± 0.036,1.04 ± 0.035,1.05 ± 0.071,1.07 ± 0.044,1.09 ± 0.052
SFXN2 (UniProt Q96NB2),0.983 ± 0.015,0.947 ± 0.032,0.99 ± 0.027,0.971 ± 0.035,0.991 ± 0.013,0.982 ± 0.022
ATG2B (UniProt Q96BY7),0.969 ± 0.044,0.97 ± 0.065,0.956 ± 0.075,0.974 ± 0.011,0.9529 ± 0.0028,1.062 ± 0.0098
UniProt Q96EX2,1.002 ± 0.0031,0.979 ± 0.029,0.9437 ± 0.0026,0.993 ± 0.026,0.972 ± 0.024,0.96 ± 0.018
UniProt Q969M7 and related entries,1.02 ± 0.074,1.05 ± 0.019,1.01 ± 0.091,0.9346 ± 0.0047,0.958 ± 0.042,0.894 ± 0.071
HSPBAP1 (UniProt Q96EW2),1 ± 0.03,0.958 ± 0.012,0.9721 ± 0.005,0.967 ± 0.03,0.969 ± 0.015,0.981 ± 0.013
UniProt Q96AP4 and related entries,1.002 ± 0.0093,1 ± 0.022,0.992 ± 0.029,0.997 ± 0.027,0.99 ± 0.027,0.978 ± 0.028
ZNF622 (UniProt Q969S3),1.03 ± 0.013,1.04 ± 0.041,1.03 ± 0.029,1.08 ± 0.024,1.06 ± 0.042,1.12 ± 0.045
ZC3H10 (UniProt Q96K80),1.02 ± 0.03,1.04 ± 0.015,1.01 ± 0.057,0.977 ± 0.036,0.986 ± 0.06,0.971 ± 0.054
PPP1R14B (UniProt Q96C90),1 ± 0.034,1.03 ± 0.014,0.978 ± 0.011,0.9649 ± 0.0037,0.98 ± 0.016,0.987 ± 0.012
UniProt Q93015 and related entries,0.978 ± 0.06,0.985 ± 0.0068,0.964 ± 0.025,0.9652 ± 0.002,1 ± 0.024,0.982 ± 0.035
PPP1R10 (UniProt Q96QC0),1.05 ± 0.023,1.09 ± 0.016,1.08 ± 0.017,1.06 ± 0.059,1.06 ± 0.048,1.06 ± 0.034
UniProt Q96LA8 and related entries,0.97892 ± 0.00094,0.922 ± 0.067,0.978 ± 0.042,0.978 ± 0.021,1.007 ± 0.0015,0.976 ± 0.022
NSUN4 (UniProt Q96CB9),0.93 ± 0.044,0.884 ± 0.035,0.97 ± 0.066,1.01 ± 0.12,1.1 ± 0.079,1.05 ± 0.018
INTS4 (UniProt Q96HW7),0.987 ± 0.012,0.976 ± 0.07,1.02 ± 0.054,1.04 ± 0.053,1.09 ± 0.072,1.05 ± 0.12
UniProt Q969U7 and related entries,0.961 ± 0.027,0.982 ± 0.042,0.974 ± 0.062,0.951 ± 0.033,0.934 ± 0.043,0.913 ± 0.069
GLMN (UniProt Q92990),0.986 ± 0.03,0.961 ± 0.024,0.965 ± 0.031,0.93 ± 0.02,0.926 ± 0.021,0.875 ± 0.023
LPP (UniProt Q93052),1.02 ± 0.024,1.03 ± 0.036,1.02 ± 0.028,0.986 ± 0.051,0.983 ± 0.035,0.964 ± 0.083
UniProt Q96EZ8 and related entries,1.02 ± 0.014,0.991 ± 0.0078,1.04 ± 0.015,1.06 ± 0.018,1.06 ± 0.061,1.1 ± 0.053
SYAP1 (UniProt Q96A49),1 ± 0.046,1.06 ± 0.077,0.952 ± 0.072,0.94 ± 0.021,0.94 ± 0.039,0.918 ± 0.08
